{
  "source": "patent US10278966B2",
  "about": "“Method of isolating quaternary phenanthroindolizidine alkaloids with G-quaduplex DNA binding activity from Tylophra atrofolliculata, compositions comprising them and their medical use” (Macau University of Science and Technology, priority 2016, dated 2019)",
  "test_system": "human telomeric DNA G-quadruplex",
  "experiment": "ESI-TOF-MS G-quadruplex binding assay",
  "conditions": "negative ESI-TOF-MS; 10 uM human telomeric DNA (27 nt) and 10 uM compound in 10 mM ammonium acetate; RBA = sum of complexes peaks areas / sum of G-quadruplex DNA peaks areas; means ± SD",
  "description": "UV data were recorded using a Beckman DU 800 UV/vis spectrophotometer. HRESIMS were recorded on an Agilent 6230 ESI-TOF mass spectrometer. NMR spectra were obtained from Bruker Ascend™ 600 spectrometer equipped with a cyro platform. Silica gel (Devisil®, 40˜63 micron) was used for column chromatography. Silica gel plates (Merck, DC Kieselgel 60 F254) was used for TLC analysis. High-performance liquid chromatography (HPLC) was carried out on Agilent 1100, Agilent 1200 and Waters 1525-2489 apparatus with a semi-preparative column (Waters, XBridge® Prep C18, 5 μm, 250×10 mm). […]\nElectrospray ionization time-of-flight mass spectrometry (ESI-TOF-MS) experiments were conducted on a Bruker maXis impact mass spectrometer in the negative mode (Bai, L. P., Plos One, 2013, 8, e53962; Bai, L. P., Sci. Rep. 2014, 4, 6767). […] Data were obtained from three parallel samples of nucleic acid-drug complex solution, and then analyzed with the software of Compass DataAnalysis. […]\n[drawing 17] and reference G-quadruplex binder sanguinarine were used as control (Bai, L. P., Anal. Bioanal. Chem., 2008, 392, 709; Bai, L. P., Bioorg. Med. Chem., 2006, 14, 5439). […] The relative binding affinities (RBA) of tested compounds were calculated to evaluate their binding capacities to human telomeric DNA G-quadruplex using the equation: RBA=Σcomplexes peaks areas/ΣG-quadruplex DNA peaks areas",
  "note": "At least one compound was matched to its structure with a doubt left.",
  "data": [
    {"smiles": "C[n+]1cc2c3c(ccc2c2ccc4cc5c(cc4c21)OCO5)OCO3", "note": "[sanguinarine, reference compound]", "values": [
      {"measurement": "Relative binding affinity (RBA)", "value": "0.735 ± 0.043"}
    ]}
  ]
}
